These are yes or no findings as the source states them, for the method shown. Binding seen in cells or lysates may run through a third protein. Some entries that bind do so weakly or less than the wild type.
T1: Zinc finger E-box-binding homeobox 1 (human (endogenous in MDA-MB-231)) (UniProt P37275)
T1 sequence: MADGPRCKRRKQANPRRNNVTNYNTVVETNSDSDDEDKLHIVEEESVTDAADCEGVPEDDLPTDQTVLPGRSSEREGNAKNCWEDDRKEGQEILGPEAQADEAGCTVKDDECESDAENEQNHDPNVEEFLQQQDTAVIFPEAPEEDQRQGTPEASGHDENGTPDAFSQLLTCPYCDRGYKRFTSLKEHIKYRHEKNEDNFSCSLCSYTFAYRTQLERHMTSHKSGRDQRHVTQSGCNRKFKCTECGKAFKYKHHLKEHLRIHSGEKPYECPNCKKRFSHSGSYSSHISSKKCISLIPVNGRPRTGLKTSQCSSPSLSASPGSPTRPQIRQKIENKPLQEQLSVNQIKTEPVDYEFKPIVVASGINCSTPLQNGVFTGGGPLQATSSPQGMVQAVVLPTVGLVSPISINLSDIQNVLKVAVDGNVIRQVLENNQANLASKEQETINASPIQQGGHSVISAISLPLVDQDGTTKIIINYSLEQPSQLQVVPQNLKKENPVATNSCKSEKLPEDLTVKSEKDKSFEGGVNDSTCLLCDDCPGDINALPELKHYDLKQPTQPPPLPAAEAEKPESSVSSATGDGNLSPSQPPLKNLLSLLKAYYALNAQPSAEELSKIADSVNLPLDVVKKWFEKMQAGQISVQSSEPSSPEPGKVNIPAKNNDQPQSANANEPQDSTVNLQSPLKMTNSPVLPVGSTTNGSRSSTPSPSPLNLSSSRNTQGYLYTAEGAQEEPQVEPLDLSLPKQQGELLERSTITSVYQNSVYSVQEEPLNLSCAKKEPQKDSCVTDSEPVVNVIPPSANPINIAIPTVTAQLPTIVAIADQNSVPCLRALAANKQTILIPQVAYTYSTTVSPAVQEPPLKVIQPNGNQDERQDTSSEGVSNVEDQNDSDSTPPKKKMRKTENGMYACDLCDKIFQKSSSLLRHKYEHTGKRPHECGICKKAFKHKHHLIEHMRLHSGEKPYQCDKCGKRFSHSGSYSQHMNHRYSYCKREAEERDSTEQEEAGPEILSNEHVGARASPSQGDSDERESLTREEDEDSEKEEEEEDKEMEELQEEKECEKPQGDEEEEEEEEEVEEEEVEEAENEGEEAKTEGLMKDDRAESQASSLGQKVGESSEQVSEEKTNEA

Protein sequences, listed by entry. Tags and fused reporters are not part of them.
UniProt Q86TM6: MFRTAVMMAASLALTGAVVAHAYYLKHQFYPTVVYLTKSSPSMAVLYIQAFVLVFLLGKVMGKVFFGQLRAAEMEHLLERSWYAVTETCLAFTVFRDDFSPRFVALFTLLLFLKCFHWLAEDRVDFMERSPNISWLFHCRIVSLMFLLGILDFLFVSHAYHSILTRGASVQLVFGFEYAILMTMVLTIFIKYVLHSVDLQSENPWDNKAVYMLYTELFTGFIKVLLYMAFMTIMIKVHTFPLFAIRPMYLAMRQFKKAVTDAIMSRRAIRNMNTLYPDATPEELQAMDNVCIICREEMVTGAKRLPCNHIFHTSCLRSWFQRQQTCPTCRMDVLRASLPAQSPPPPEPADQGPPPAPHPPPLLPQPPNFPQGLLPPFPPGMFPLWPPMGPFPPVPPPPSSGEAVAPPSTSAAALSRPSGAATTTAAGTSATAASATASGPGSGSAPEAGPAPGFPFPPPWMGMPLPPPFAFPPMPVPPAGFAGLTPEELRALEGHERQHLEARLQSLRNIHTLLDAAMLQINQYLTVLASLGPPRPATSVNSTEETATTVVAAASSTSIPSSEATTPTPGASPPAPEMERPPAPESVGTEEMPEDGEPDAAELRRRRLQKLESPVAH
UniProt Q9HCE7: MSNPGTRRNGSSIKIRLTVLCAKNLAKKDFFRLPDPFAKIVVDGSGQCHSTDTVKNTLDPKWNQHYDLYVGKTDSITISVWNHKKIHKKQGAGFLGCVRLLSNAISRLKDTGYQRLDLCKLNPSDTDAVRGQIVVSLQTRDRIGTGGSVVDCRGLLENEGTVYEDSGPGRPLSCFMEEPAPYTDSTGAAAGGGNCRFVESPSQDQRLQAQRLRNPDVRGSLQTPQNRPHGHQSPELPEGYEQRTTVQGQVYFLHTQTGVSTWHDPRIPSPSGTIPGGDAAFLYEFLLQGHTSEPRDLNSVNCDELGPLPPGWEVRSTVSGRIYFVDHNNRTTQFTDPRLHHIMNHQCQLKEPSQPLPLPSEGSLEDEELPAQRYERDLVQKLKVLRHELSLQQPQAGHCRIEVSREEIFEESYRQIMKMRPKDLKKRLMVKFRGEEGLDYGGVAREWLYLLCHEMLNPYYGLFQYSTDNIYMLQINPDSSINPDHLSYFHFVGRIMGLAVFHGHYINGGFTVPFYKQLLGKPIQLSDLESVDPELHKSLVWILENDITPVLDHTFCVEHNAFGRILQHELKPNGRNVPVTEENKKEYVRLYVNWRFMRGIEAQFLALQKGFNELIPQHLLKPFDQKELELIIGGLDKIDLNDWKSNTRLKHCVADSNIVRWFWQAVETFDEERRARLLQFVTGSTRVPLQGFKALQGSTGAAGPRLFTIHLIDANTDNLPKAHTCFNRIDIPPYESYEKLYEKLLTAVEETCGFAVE
UniProt Q92905: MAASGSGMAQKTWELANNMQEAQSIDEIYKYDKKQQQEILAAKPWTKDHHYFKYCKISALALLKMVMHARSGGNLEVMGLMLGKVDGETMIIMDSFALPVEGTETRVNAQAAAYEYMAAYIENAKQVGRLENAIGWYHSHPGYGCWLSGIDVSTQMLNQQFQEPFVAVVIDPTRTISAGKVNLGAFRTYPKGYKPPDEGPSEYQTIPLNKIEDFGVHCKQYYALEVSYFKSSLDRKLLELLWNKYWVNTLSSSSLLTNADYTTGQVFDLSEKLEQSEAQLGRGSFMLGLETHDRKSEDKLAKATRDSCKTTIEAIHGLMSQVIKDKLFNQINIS
UniProt Q00987: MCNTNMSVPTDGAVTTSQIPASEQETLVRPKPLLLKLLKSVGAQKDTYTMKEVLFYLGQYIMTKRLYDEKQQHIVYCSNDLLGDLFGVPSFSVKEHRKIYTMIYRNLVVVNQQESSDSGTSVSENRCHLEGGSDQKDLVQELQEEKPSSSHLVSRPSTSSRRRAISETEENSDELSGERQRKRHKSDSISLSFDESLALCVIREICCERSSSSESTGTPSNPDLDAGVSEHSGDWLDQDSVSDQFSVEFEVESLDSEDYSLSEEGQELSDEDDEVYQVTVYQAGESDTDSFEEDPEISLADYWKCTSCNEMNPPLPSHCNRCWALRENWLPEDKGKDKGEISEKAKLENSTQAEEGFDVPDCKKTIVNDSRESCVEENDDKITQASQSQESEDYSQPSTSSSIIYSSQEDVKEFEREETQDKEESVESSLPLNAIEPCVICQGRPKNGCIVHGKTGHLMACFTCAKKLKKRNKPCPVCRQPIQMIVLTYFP


molecular target: T1, Zinc finger E-box-binding homeobox 1 (human (endogenous in MDA-MB-231)); assay: co-IP; extracts (RIPA buffer) of MDA-MB-231, shRNA-NC and shRNA-SENP1 MDA-MB-231 cells; immunoprecipitation with anti-ZEB1 or anti-IgG antibody overnight at 4 °C, protein A/G agarose; immunoblot for the partners

| binding | Molecule |
| --- | --- |
| binds | SYVN1 (from UniProt Q86TM6 1-617) (enzyme) |
| binds | SMURF1 (from UniProt Q9HCE7 1-757) (enzyme) |
| binds | COP9 signalosome complex subunit 5 (from UniProt Q92905 1-334) (enzyme) |
| binds | MDM2 (from UniProt Q00987 1-491) (enzyme) |
| binds | USP51 (enzyme, UniProt Q70EK9 1-711) MAQVRETSLPSGSGVRWISGGGGGASPEEAVEKAGKMEEAAAGATKASSRREAEEMKLEPLQEREPAPEENLTWSSSGGDEKVLPSIPLRCHSSSSPVCPRRKPRPRPQPRARSRSQPGLSAPPPPPARPPPPPPPPPPPAPRPRAWRGSRRRSRPGSRPQTRRSCSGDLDGSGDPGGLGDWLLEVEFGQGPTGCSHVESFKVGKNWQKNLRLIYQRFVWSGTPETRKRKAKSCICHVCSTHMNRLHSCLSCVFFGCFTEKHIHKHAETKQHHLAVDLYHGVIYCFMCKDYVYDKDIEQIAKETKEKILRLLTSTSTDVSHQQFMTSGFEDKQSTCETKEQEPKLVKPKKKRRKKSVYTVGLRGLINLGNTCFMNCIVQALTHIPLLKDFFLSDKHKCIMTSPSLCLVCEMSSLFHAMYSGSRTPHIPYKLLHLIWIHAEHLAGYRQQDAHEFLIAILDVLHRHSKDDSGGQEANNPNCCNCIIDQIFTGGLQSDVTCQACHSVSTTIDPCWDISLDLPGSCATFDSQNPERADSTVSRDDHIPGIPSLTDCLQWFTRPEHLGSSAKIKCNSCQSYQESTKQLTMKKLPIVACFHLKRFEHVGKQRRKINTFISFPLELDMTPFLASTKESRMKEGQPPTDCVPNENKYSLFAVINHHGTLESGHYTSFIRQQKDQWFSCDDAIITKATIEDLLYSEGYLLFYHKQGLEKD |
